# The list shows a part of the results. Further columns of the screen follow, without active or inactive calls. Most of these compounds were active or inconclusive in the main read-out, so they are no random draw. Potencies come from curve fits of mixed quality, noted in brackets.
# Test: qHTS Assay for Lipid Storage Modulators in Drosophila S3 Cells;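 on cell number change: cells counted by Cell Tracker Red CMTPX staining in the red channel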
# Settings: BODIPY lipid droplet fluorescence, 18-24 h; for cell number change: measured here: cell count max response, cells fed with added oleic acid
# Procedure, shortened: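 Drosophila S3 cells loaded with oleic acid (400 uM, as added) and compounds at several concentrations; lipid droplets imaged by 488-nm laser-scanning cytometry, 500–530 nm intensity and object ratio to cell channel. Percent activity normalized to 20 uM Triacsin C.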
# [1] = measured here: lipid fluorescence (Fed channel) AC50, cells fed with added oleic acid
# [2] = measured here: cell number channel AC50, cells fed with added oleic acid
SMILES,cell number change [%],AC50 [1],AC50 [2]
CCN1C(=O)C2(C(C(=O)c3ccc(C)o3)=C(O)C(=O)N2CCCN2CCOCC2)c2ccccc21 (stereo unspecified),-1.17,,
CCC(=O)N1CCc2cc(S(=O)(=O)NCCC(=O)NC3CCCCCC3)ccc21,17.9,"29.1 µM [falling, single point]",
Cc1cc2ncc(-c3ccccc3)nc2cc1C,-29.9,"29.1 µM [falling, single point]",
CSc1ccc(S(=O)(=O)N2CCC(C(=O)NCc3ccco3)CC2)cc1,19.2,"6.51 µM [rising, single point]",
COc1ccc(S(=O)(=O)Nc2cc(Cl)ccc2-n2cncn2)cc1,-13,,
Cc1ccc(OCc2cc(C(=O)NCc3cnn(-c4cccc(F)c4)c3)no2)cn1,-9.67,,
Cc1ccccc1-c1oc(C)c(C)[n+]1[O-],6.55,"4.61 µM [falling, single point]",
COc1ccc2c(c1)CC/C(=C\c1ccc(C)o1)C2=O,19.2,"2.59 µM [rising, partial curve]",
CCN(CC)c1ccc(N=Cc2ccc(N(CC)CC)cc2O)cc1,6.71,"13 µM [rising, single point]",
CC(C)CC(=O)NC1(C(F)(F)F)C(=O)Nc2c1c(=O)n(C)c(=O)n2C (stereo unspecified),,"5.17 µM [falling, partial curve]",
Cc1cc(C)c(S(=O)(=O)Nc2ccc(C(N)=O)cc2)c(C)c1,17.9,,
Clc1ccc(-c2ccc(C=Nc3ccc(N4CCOCC4)cc3)o2)c(Cl)c1,1.58,,
CN(C(=O)COC(=O)c1ccc(F)c(S(=O)(=O)N2CCOCC2)c1)C1CCS(=O)(=O)C1 (stereo unspecified),-9.96,,"0.461 µM [falling, single point]"
O=C(COc1ccc(Cl)cc1Cl)N/N=C/C1CC=CCC1 (stereo unspecified),,"3.26 µM [falling, partial curve]",
COc1ccc(NC(=O)CCC(=O)N/N=C/c2ccc([N+](=O)[O-])s2)cc1,-13.6,"11.6 µM [falling, single point]",
O=C(NCc1ccccn1)c1n[nH]c2ccccc12,63.8,"6.51 µM [rising, single point]","6.51 µM [rising, full curve]"
Cn1c(Cn2c(=O)sc3ccccc32)nnc1SCC(=O)NCc1ccc2c(c1)OCO2,-15.2,"16.4 µM [falling, single point]",
CC1CCN(S(=O)(=O)c2ccc(NC(=O)CNC3CCCCC3)cc2)CC1,4.76,,
O=C(O)c1ccccc1SCc1csc(-c2ccccc2)n1,-15.4,"29.1 µM [falling, single point]",

# Molecules from the list above that have fluorine (3):
SMILES,cell number change [%],AC50 [1],AC50 [2]
Cc1ccc(OCc2cc(C(=O)NCc3cnn(-c4cccc(F)c4)c3)no2)cn1,-9.67,,
CC(C)CC(=O)NC1(C(F)(F)F)C(=O)Nc2c1c(=O)n(C)c(=O)n2C (stereo unspecified),,"5.17 µM [falling, partial curve]",
CN(C(=O)COC(=O)c1ccc(F)c(S(=O)(=O)N2CCOCC2)c1)C1CCS(=O)(=O)C1 (stereo unspecified),-9.96,,"0.461 µM [falling, single point]"
